According to the supplement of paper PMC6289059:
Values joined by “and” are separate entries in the source; they are usually repeats but may differ in a detail not shown here. Equal values may be shown once. The list shows a part of the results. Single values are uncertain, as repeats are few or missing.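 The cells are hepatocyte-like cells grown from human stem cells in which the DGUOK gene was disrupted by CRISPR, a model of liver mtDNA depletion syndrome. Each well's ATP signal was scored against the other wells on its plate, and a drug counted as a primary hit when its score was 3 or higher.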

Tested on: DGUOK Δ14/Δ5 iPSC-derived hepatocyte-like cells (SV20)
Test: ATP level (CellTiter-Glo luminescence) Z score relative to plate distribution, under 2-DG glycolysis block; higher = more cellular ATP (rescue of mitochondrial ATP production)
Conditions: 5 µM; treatment time: day 15 to day 20 of differentiation (5 days); 2-deoxy-D-glucose: 20 mM for 24 h before assay

Q: For `O=C1C(CC[S+]([O-])c2ccccc2)C(=O)N(c2ccccc2)N1c1ccccc1` (centres undefined), which ATP level is on record?
A: inactive: 1.47

Q: With `CCC[C@H](N[C@@H](C)C(=O)N1[C@H](C(=O)O)C[C@@H]2CCCC[C@@H]21)C(=O)O` as the compound, how does the ATP level read?
A: inactive: 2.34

Q: How did the ATP level turn out when `CC(C)c1ccc2c(c1)CCC1C(C)(C(N)=O)CCCC21C` (centres undefined) was run?
A: inactive: 2.23

Q: For `CC(=O)Oc1c(C)cccc1C(=O)O`, which ATP level is on record?
A: inactive: 1.31

Q: For `N=c1ccn2c(n1)O[C@H]1[C@H](O)[C@@H](CO)O[C@H]12`, which ATP level is on record?
A: inactive: 2.81

Q: For `O=C(O)c1cc(=O)c2cccc(O)c2[nH]1`, which ATP level is on record?
A: inactive: -0.147

Q: With `O=c1[nH]cc(F)c(=O)[nH]1` as the compound, how does the ATP level read?
A: inactive: 2.53

Q: How did the ATP level turn out when `CCOc1cc(NC(C)=O)ccc1C(=O)OC` was run?
A: inactive: 2.29

Q: For `C[C@]12C=CC(=O)C=C1CC[C@@H]1[C@@H]2[C@@H](O)C[C@@]2(C)[C@H]1CC[C@]2(O)C(=O)CO`, which ATP level is on record?
A: inactive: 2.67

Q: Which ATP level does the source give for `CC(C)Cc1ccc([C@H](C)C(=O)O)cc1` here?
A: inactive: 1.4

Q: With `CS(=O)(=O)c1ccc([C@@H](O)[C@@H](CO)NC(=O)C(Cl)Cl)cc1` as the compound, how does the ATP level read?
A: inactive: -35.4

Q: How did the ATP level turn out when `O=C(Nc1cc(Cl)cc(Cl)c1O)c1c(O)c(Cl)cc(Cl)c1Cl` was run?
A: inactive: 0.67

Q: `O=C(O)Cc1ccccc1Nc1c(Cl)cccc1Cl` was tested. Which ATP level did it give?
A: active: 3.46

Q: How did the ATP level turn out when `C[C@@H](c1ncncc1F)[C@](O)(Cn1cncn1)c1ccc(F)cc1F` was run?
A: inactive: 1.95

Q: For `C[C@@H]1O[C@@H](Oc2c(-c3ccc(O)c(O)c3)oc3cc(O)cc(O)c3c2=O)[C@H](O)[C@H](O)[C@H]1O`, which ATP level is on record?
A: inactive: -1.53

Q: Which ATP level does the source give for `C[C@@H]1CC(=O)NN=C1c1ccc(NN=C(C#N)C#N)cc1` here?
A: inactive: 2.51

Q: With `CCC(=O)O[C@H](CC(=O)O)C[N+](C)(C)C` as the compound, how does the ATP level read?
A: inactive: 0.708

Q: Which ATP level does the source give for `Cc1cc(OC(=O)c2c(C)cc(O)cc2O)cc(O)c1C(=O)O` here?
A: inactive: 0.323

Q: `Cc1cc(C(C)(C)CC(C)(C)C)ccc1OCCOCC[N+](C)(C)Cc1ccccc1` was tested. Which ATP level did it give?
A: inactive: -36.6

Q: With `Cc1cc(NC(=O)C2=C(O)c3ccccc3S(=O)(=O)N2C)no1` as the compound, how does the ATP level read?
A: active: 8.25

Q: With `CO[C@@]1(NC(=O)C2SC(=C(C(N)=O)C(=O)O)S2)C(=O)N2C(C(=O)O)=C(CSc3nnnn3C)CS[C@@H]21` (some centres undefined) as the compound, how does the ATP level read?
A: inactive: -9.8

Q: How did the ATP level turn out when `CN(C)CCCN1c2ccccc2CCc2ccc(Cl)cc21` was run?
A: inactive: -12.2

Q: Which ATP level does the source give for `C#C[C@]1(OC(C)=O)CC[C@H]2[C@@H]3CCC4=C[C@@H](OC(C)=O)CC[C@@H]4[C@H]3CC[C@@]21C` here?
A: inactive: 2.74

Q: For `C[C@@H]1CC[C@@]2(OC1)O[C@H]1C[C@H]3[C@@H]4CC[C@H]5C[C@@H](O)CC[C@]5(C)[C@H]4CC[C@]3(C)[C@H]1[C@@H]2C`, which ATP level is on record?
A: inactive: -0.921

Q: With `Nc1ccc(S(=O)(=O)Nc2ncccn2)cc1` as the compound, how does the ATP level read?
A: inactive: 0.509

Q: With `CO[C@@]1(NC(=O)C(C(=O)O)c2ccc(O)cc2)C(=O)N2C(C(=O)O)=C(CSc3nnnn3C)CO[C@@H]21` (some centres undefined) as the compound, how does the ATP level read?
A: inactive: 2.12

Q: For `O=c1c(O)c(-c2ccccc2)oc2ccccc12`, which ATP level is on record?
A: inactive: -0.872

Q: With `O=C1CC[C@@H](C(=O)O)N1` as the compound, how does the ATP level read?
A: inactive: 0.0992

Q: Which ATP level does the source give for `CO[C@H]1C[C@@H]2CC[C@@H](C)[C@@](O)(O2)C(=O)C(=O)N2CCCC[C@H]2C(=O)O[C@H]([C@H](C)C[C@@H]2CC[C@@H](O)[C@H](OC)C2)CC(=O)[C@H](C)/C=C(\C)[C@@H](O)[C@@H](OC)C(=O)[C@H](C)C[C@H](C)/C=C/C=C/C=C/1C` here?
A: inactive: 2.52

Q: For `COC(=O)C[C@H]1C(C)(C)[C@@H](OC(C)=O)[C@@H]2CC3=C4CC(=O)O[C@@H](c5ccoc5)[C@]4(C)CC[C@@H]3[C@@]1(C)C2=O`, which ATP level is on record?
A: inactive: -0.62

Q: How did the ATP level turn out when `CCOc1ccccc1C(N)=O` was run?
A: inactive: -0.358

Q: Which ATP level does the source give for `NS(=O)(=O)c1ccc(C(=O)O)cc1` here?
A: inactive: 2.29

Q: For `CCN(CC)CCCC(C)Nc1c2ccc(Cl)cc2nc2ccc(OC)cc12` (centres undefined), which ATP level is on record?
A: inactive: -1.96

Q: For `Cc1nc(C)c(Cl)c(O)c1Cl`, which ATP level is on record?
A: inactive: 0.686

Q: For `CCCCCCCCCCCCCCCC[N+](C)(C)CCN(Cc1ccc(OC)cc1)c1ncccn1`, which ATP level is on record?
A: inactive: -12.1

Q: Which ATP level does the source give for `O=C(O)P(=O)(O)O` here?
A: active: 3.47

Q: Which ATP level does the source give for `CC(C)NCC(O)c1ccc(NS(C)(=O)=O)cc1` (centres undefined) here?
A: inactive: 0.277

Q: For `C#C[C@]1(O)CC[C@H]2[C@@H]3CCc4cc(OC)ccc4[C@H]3CC[C@@]21C`, which ATP level is on record?
A: inactive: -7.45

Q: With `CC(=O)N1CCN(c2ccc(OCC3COC(Cn4ccnc4)(c4ccc(Cl)cc4Cl)O3)cc2)CC1` (centres undefined) as the compound, how does the ATP level read?
A: inactive: 0.543

Q: Which ATP level does the source give for `O=c1c(-c2ccc(O)cc2)coc2cc(O)cc(O)c12` here?
A: inactive: 1.21

Q: `N[C@H](Cc1ccccc1)C(=O)O` was tested. Which ATP level did it give?
A: inactive: -6.71

Q: With `O=C1C=CC(=C(c2ccc(O)cc2)c2ccc(O)cc2)C=C1` as the compound, how does the ATP level read?
A: inactive: 0.861

Q: With `CCCc1nc(C)c2c(O)nc(-c3cc(S(=O)(=O)N4CCN(CC)CC4)ccc3OCC)nn12` as the compound, how does the ATP level read?
A: inactive: 0.774

Q: With `COc1cc2c(cc1OC)-c1cc3ccc(OC)c(OC)c3c[n+]1CC2` as the compound, how does the ATP level read?
A: inactive: -11.3 and inactive: -11.6
